The results in this text go back to patent publication US20040265834A1.

These are yes or no findings as the source states them, for the method shown. Binding seen in cells or lysates may run through a third protein.

This assay deals with FGFR3. Put plainly: co-immunoprecipitation with anti-IL-17RLM serum from Cos7 cells co-expressing the two proteins.

B1: human IL-17 receptor like molecule long form (hIL-17RLM-L) (receptor)
chain: CLNGSQLAVAAGGSGRARGADTCGWRGVGPASRNSGLYNITFKYDNCTTYLNPVGKHVIADAQNITISQYACHDQVAVTILWSPGALGIEFLKGFRVILEELKSEGRQCQQLILKDPKQLNSSFKRTGMESQPFLNMKFETDYFVKVVPFPSIKNESNYHPFFFRTRACDLLLQPDNLACKPFWKPRNLNISQHGSDMQVSFDHAPHNFGFRFFYLHYKLKHEGPFKRKTCEQEQTTEMTSCLLQNVSPGDYIIELVDDTNTTRKVMHYALKPVHSPWAGPIRAVAITVPLVVISAFATLFTVMCRKKQQENIYSHLDEESSESSTYTAALPRERLRPRPKVFLCYSSKDGQNHMNVVQCFAYFLQDFCGCEVALDLWEDFSLCREGQREWVIQKIHESQFIIVVCSKGMKYFVDKKNYKHKGGGRGSGKGELFLVAVSAIAEKLRQAKQSSSAALSKFIAVYFDYSCEGDVPGILDLSTKYRLMDNLPQLCSHLHSRDHGLQEPGQHTRQGSRRNYFRSKSGRSLYVAICNMHQFIDEEPDWFEKQFVPFHPPPLRYREPVLEKFDSGLVLNDVMCKPGPESDFCLKVEAAVLGATGPADSQHESQHGGLDQDGEARPALDGSAALQPLLHTVKAGSPSDMPRDSGIYDSSVPSSELSLPLMEGLSTDQTETSSLTESVSSSSGLGEEEPPALPSKLLSSGSCKADLGCRSYTDELHAVAPL
For the molecule B1, the binding entry is on record as “no binding”.
